PubChem BioAssay AID1347426 (Functional Genomics Laboratory (NCATS/FGL), 2020)
Among all 31,000 sequences or so, about 1,400 (4.5%) were called active.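 The calls were made as follows: active = median seed-adjusted z-score above 1 or below -1; inactive = the rest.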 The list shows a part of the results.

Experiment: Novel Modifiers of Survival Motor Neuron (SMN) Protein: Gene Identification via Genome-wide siRNA Screen;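 also: luminescence tracks full-length SMN protein made from the SMN2 reporter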
Details: HEK293T SMN2-luciferase reporter, siRNA knockdown, 72 h; actives lie on both sides
In short: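 Each of three siRNAs per gene is reverse-transfected (1 pmol) into reporter HEK293T cells whose luciferase output tracks SMN protein level. After 72 h culture, ONE-Glo luminescence is control-normalized, log10-transformed and MAD-standardized; Common Seed Analysis deprioritizes seed-driven hits.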

| Sequence | median seed-adjusted z-score |
| --- | --- |
| CCAUGCCGCUCAUUGGUGATT against SYN1 | inactive: -0.458 |
| GGACACUUCUUAAGAAACATT against ZNF323 | inactive: -0.319 |
| GAGGCGCACAAAUACCGGATT against SLC25A1 | inactive: 0.252 |
| GGUGAACCACGGAUAGAUATT against PLS3 | inactive: -0.167 |
| CCAAACCACUACAACCCUUTT against RPP21 | active: -1.09 |
| AGCUCAUACCUGUCUGAUUTT against SLC3A2 | inactive: -0.0428 |
| CCUGUUGAGUGUAAAAUCUTT against GTF2H2 | inactive: -0.00624 |
| CAUGAAUCCUUUACAGCAATT against RALB | inactive: -0.534 |
| GCAAGUUGGAGAACGAGUATT against MED8 | active: -1.61 |
| CAGCCUACGUGAACACCUUTT against CLN3 | inactive: 0.105 |
| UGCAUAGCCUGGACACAGATT against FLT3LG | inactive: -0.166 |
| GCUCAGUAUUUAAACAUCATT against COL9A2 | inactive: 0.0208 |
| CUCUGGAACCUGUUGAUUUTT against SERPINB13 | inactive: 0.0593 |
| GGAAACCUGUGAAACAACATT against PTGFR | inactive: 0 |
| CCAUCGUGAUGAUAUUUGATT against SEC14L3 | inactive: 0.308 |
| GCACCAAGCAUUAUGAAAATT against SDCBP | inactive: 0.0325 |
| CCAAGAUUCUUUGCCGCUATT against PAX7 | inactive: -0.803 |
| CCAGCUCAGAUAGCACAGATT against COG8 | inactive: 0.0438 |
| GAAAUUGCCUAUUACUCUUTT against SLC19A2 | inactive: -0.679 |
| CUGUUUAGCUUCAUGCAAATT against ARID3C | active: -1.32 |
| CAGACUUGAUACAAACUAUTT against SPOCK3 | inactive: 0.329 |
| AGCUCCCUGCCUUUAAUAATT against CHPF | inactive: 0.248 |

| Sequence | median seed-adjusted z-score |
| --- | --- |
| GCAUCGUGGGCAUAGCGUATT against PCSK6 | inactive: 0 |
| CCUUAGAUCUCGCGAAGAATT against DCT | inactive: -0.184 |
| GGGAAACGAUAUUCAUACATT against ADAMTS19 | inactive: -0.39 |
| ACAGAACUCGGGACCUUUUTT against H6PD | inactive: 0.069 |
| AGCUAUAGCUGAUUGUGAATT against GRPEL2 | inactive: 0.0821 |
| AUAACUACCUGAUCAAGAATT against YWHAG | active: 1.98 |
| GUACCUAAGUUGGAGCUGATT against TRPT1 | inactive: -0.671 |
| CACUAACAUUAUCCGUAAATT against ZNF189 | inactive: 0.0743 |
| GGACAAGGCUAACAUCCCATT against HMGA1 | inactive: 0.557 |
| CCGGGAAAGUCUUAAUAGATT against CTSO | inactive: 0.322 |
| GCAAGUUGACUAUCACGUUTT against POLR1A | inactive: 0.0814 |
| CCAUUACACGGUUCGGGUATT against CAPN7 | inactive: 0.125 |
| GGAUCAUGCAAUCAACAAATT against MAPKAPK2 | inactive: -0.543 |
| GAAGAUCAACGGACGCGAATT against OLIG3 | inactive: -0.598 |
| AAAGAUCCAAGAUCAAGAATT against DLX5 | inactive: 0.115 |
| GGACAGCUCAAAACUCAGATT against MST1R | inactive: -0.278 |
| GCAAAGAGAAUAGAAACUUTT against RGS16 | inactive: 0 |
| AGUGAAGUAUGUGAAUGUATT against METTL2B | inactive: 0.769 |
| GGAUUAAUGUGACUGAGGUTT against IL11RA | inactive: -0.708 |
| GGAGAAAAACGGCCAAGAGTT against HMGA2 | inactive: -0.327 |
| CCUCAGCUACGGUGUCUUUTT against MFNG | inactive: 0.377 |
| GAAUGACCUUGAACAAUGATT against ABTB2 | inactive: 0.432 |

| Sequence | median seed-adjusted z-score |
| --- | --- |
| CGACAGAGGCAGACACAGATT against BATF | inactive: -0.0501 |
| GCCUAGGAGCGAGGACUUATT against DNAJC30 | inactive: 0.329 |
| GAGUAGUUGAUACCCGAAATT against SETX | inactive: -0.709 |
| GAGUCUUGAGGGAAAACCATT against CDO1 | inactive: 0.336 |
| GCGGAAAAGGUAUCCCUCATT against SLC12A8 | inactive: 0.113 |
| CAGACAUUCUUCUCUAUAATT against CHRNA7 | inactive: -0.485 |
| GAUCAAUUACGAAAUCUCATT against MED30 | active: -2.06 |
| UCAACCCUCUGAUAGAAGATT against EID2 | active: -1.04 |
| GCUCGUAAGAGUGCAAGUATT against USPL1 | active: -1.87 |
| CUUCCGCAUUGAGAGCUAUTT against INPP5J | inactive: 0.223 |
| AAAUCGCUUAUAUACCUAUTT against HBEGF | inactive: -0.903 |
| AGAACAUGAUUGUAUAAUUTT against CALCB | inactive: 0 |
| CACGAAAUGUAGAAUUACATT against SCN2A | inactive: 0 |
| CUCUCGGACUUUUUCCAAATT against ADIPOR1 | inactive: 0 |
| GGUGCUGGAGUUAAUCUUATT against TP53I3 | inactive: 0.244 |
| GUAGAGUACGAAAAUCUAATT against ZNF433 | inactive: 0 |
| CCUCAGGGAAGUACCCAAATT against RNASE8 | inactive: 0.00771 |
| GAGACAUUCCAAUAGUUCATT against SEC11C | inactive: 0.508 |
| GGCACAGCCUUGUAUGGAATT against PARP14 | inactive: -0.289 |
| CACUGUAUGGUAACGUGUUTT against POU3F4 | inactive: -0.314 |
| AAGUGGGAGUUACAUUAAATT against DLGAP2 | inactive: 0.295 |
| GAAUUCAUCCGGGAAAGGATT against GAS7 | inactive: 0.335 |

Some of the entries so far, as tab-separated lines:
Sequence	median seed-adjusted z-score
GCGGAAAAGGUAUCCCUCATT against SLC12A8	inactive: 0.113
CAGACAUUCUUCUCUAUAATT against CHRNA7	inactive: -0.485
GAUCAAUUACGAAAUCUCATT against MED30	active: -2.06

(continued)

| Sequence | median seed-adjusted z-score |
| --- | --- |
| GACUUGACCUUCCUAUUGATT against CTPS | inactive: 0.0943 |
| CCGUGAAAGGACUCAGUAATT against USP16 | inactive: -0.173 |
| CAGUUAUGUUCGAAAGCAUTT against ZNF564 | inactive: 0.382 |
| GCAGUAGAGAAAUAAGACATT against DNAJC10 | inactive: 0.0527 |
| CACUGUUUCGACAAAAUCATT against F7 | inactive: 0.277 |
| GAGAUCGGGUUGUUGGUUATT against AACS | inactive: 0.232 |
| CAACUUUCAGAUCAGUGAATT against ARD1A | active: -1.05 |
| GCACAGCUCUAGUUACAUUTT against ATP6V1G1 | inactive: 0.311 |
| AAGUUCUGAGAGAAAUAAATT against NDUFB1 | inactive: 0 |
| CCAGCAUACGUACAGGAAATT against ARHGDIA | inactive: 0.627 |
| GGAACAUCACAGUUCGAAATT against ITGA1 | inactive: 0.0281 |
| GGUGCUCACGUGUCCUUAATT against AK1 | inactive: -0.0471 |
| GAUAUUGCACAAAUCUAUATT against UBE2D1 | inactive: 0.508 |
| CCUUCUCCACGCUCAACUATT against SLC19A1 | inactive: 0 |
| GGACCUCAAGGCCUACGAATT against FOXA2 | inactive: 0.883 |
| CCACGUUGAAAAUAAUCAATT against PDE5A | inactive: 0 |
| GUAUUCCAGCGAAUCCGAUTT against PAK7 | inactive: -0.202 |
| GAAGAAUCUUUUCAGCAAATT against SAFB | inactive: -0.954 |
| GCCUCCUUCUUUGACCGGATT against NACC1 | active: 1.59 |
| GAAAACCCACUAUCCUGAUTT against ALX3 | inactive: -0.0707 |
| GCCUUACCAUAGGUCAACATT against TRIM59 | inactive: 0.941 |
| CAAUGAUGAUCAUUACUCATT against MBOAT2 | inactive: -0.282 |

Retrieved one by one from the list above:

| Sequence | median seed-adjusted z-score |
| --- | --- |
| CCAAACCACUACAACCCUUTT against RPP21 | active: -1.09 |
| CACUGUAUGGUAACGUGUUTT against POU3F4 | inactive: -0.314 |
| GCUCAGUAUUUAAACAUCATT against COL9A2 | inactive: 0.0208 |
| CAGCCUACGUGAACACCUUTT against CLN3 | inactive: 0.105 |

Further entries follow:

| Sequence | median seed-adjusted z-score |
| --- | --- |
| CGAUUACUCCAAACUUCCATT against PAK3 | inactive: 0 |
| CCUUUAGCCGAAGCACUAATT against ZNF391 | inactive: 0.056 |
| GCCUGGAUGAAUUCGAUUATT against UBE4A | inactive: -0.285 |
| GAAGUUGACUCUACUUUGATT against SDHB | inactive: 0.0872 |
| CCUGAGCACAUAUAACUGUTT against ART4 | inactive: -0.0808 |
| CAGCUAUUACUAUGGUUAATT against PTBP2 | inactive: 0.138 |
| CUACUAUCCUGGUUCUGGATT against PROS1 | inactive: 0.436 |
| GGCUUUAGGUGAGCCUUCATT against OGFOD2 | inactive: 0.493 |
| UCAUUGUCCUUGCCUCUUUTT against PAQR7 | inactive: -0.0406 |
| CCAAGUCUGUGAAUGUAAATT against SORD | inactive: 0.17 |
| CCUCGUCAUUAAAGACAAATT against FBXO18 | inactive: -0.417 |
| AGACCUCGAUUUCACAGUATT against PRMT8 | inactive: 0 |
| GGAUUCUUAUGCUCGCUAUTT against RGS9 | inactive: 0.0665 |
| GCAUGAGAGCGACAUCUCATT against SLC12A5 | inactive: -0.22 |
| GGUGAAAAGUGGGAGUUAATT against TARS | inactive: 0.146 |
| CGAUAUGAUUGGCCAGAGATT against GIPC3 | inactive: -0.27 |
| GAAUCAAGAAGACCCAGGATT against LASP1 | inactive: -0.286 |
| GGAACUAACUGAACUAGCUTT against ACSL3 | inactive: 0 |
| GUACAAAGCCUGUAUCUCUTT against KRT6A | inactive: -0.146 |
| GCAGAUGCCGUUAAACAAATT against CAMK4 | inactive: 0 |
